Data on one compound can be found in patent publication US12171232B1, “N-[(4,6-dimethylpyrimidin-2-yl)carbamothioyl] pyridine-3-carboxamide as an eco-friendly insecticidal agent against Spodoptera littoralis (boisd.)” (KING FAISAL UNIVERSITY, priority 2023, dated 2024).

SMILES strings stand for the structures.

For this data set, the system named is Spodoptera littoralis. Briefly: Insecticidal bioassay screening (castor leaf dip) on larvae of the laboratory strain of cotton leafworm. Format: in vivo. The following applies: after 72 hrs of treatment, slope of LDP line. On the procedure:
Five concentrations (200, 100, 50, 25, 12.5 ppm) were designed for this synthetic compound and the reference Diflubenzuron compound as the dynamic ingredients based on ppm via diluting the commercial formulation.
In this experiment, castor leaves are immersed in each of the previously prepared concentrations of the components for 10 seconds and then left to dry for 60 minutes. Larvae of the second and fourth instars of each checked strain are prepared with treated leaves in gauze-covered glass containers for 72 hrs. An untreated control is made in which leaves are dipped in triton x-100 and distilled water only. Then the preserved leaves were removed & fresh, untreated leaves were provided for 72 hours. Three replicates (10 larvae each) were checked for each concentration. Daily inspection was carried out for all treatments and mortality percentages were recorded 3 days (72 hours) after treatment. The average mortality percentage was corrected employing Abbott's formula. The corrected mortality rate for each of the previously synthesized compounds is statistically calculated according to Finney (1970). Through this rate, the corresponding concentration test lines (LDP lines) are assessed.

For `Cc1cc(C)nc(NC(=S)NC(=O)c2cccnc2)n1` [Compound 2, N-[(4,6-Dimethylpyrimidin-2-yl)carbamothioyl]pyridine-3-carboxamide], the Slope was 1.24 ± 0.36 (2nd instar larvae) and 1.26 ± 0.36 (4th instar larvae).
